System: EV-A71
Assay: Cytopathic effect (CPE) inhibition assay in RD cells
Type: cell-based, Human enterovirus A71

EC50 (Enterovirus A, EVA71, read-out: EC50, compound concentration required to achieve 50% protection from virus-induced cytopathogenicity): 4.54 ± 1.17 µM
Compound: CNC(=O)c1ccccc1Sc1ccc2c(/C=C/c3ccccn3)n[nH]c2c1 [Axitinib]
SI (selectivity index), ratio CC50/EC50: 22.91
